Assay results: paper PMC9723622

Sequences of proteins named here, by UniProt entry; tags and fusion partners are left off.
UniProt P09874: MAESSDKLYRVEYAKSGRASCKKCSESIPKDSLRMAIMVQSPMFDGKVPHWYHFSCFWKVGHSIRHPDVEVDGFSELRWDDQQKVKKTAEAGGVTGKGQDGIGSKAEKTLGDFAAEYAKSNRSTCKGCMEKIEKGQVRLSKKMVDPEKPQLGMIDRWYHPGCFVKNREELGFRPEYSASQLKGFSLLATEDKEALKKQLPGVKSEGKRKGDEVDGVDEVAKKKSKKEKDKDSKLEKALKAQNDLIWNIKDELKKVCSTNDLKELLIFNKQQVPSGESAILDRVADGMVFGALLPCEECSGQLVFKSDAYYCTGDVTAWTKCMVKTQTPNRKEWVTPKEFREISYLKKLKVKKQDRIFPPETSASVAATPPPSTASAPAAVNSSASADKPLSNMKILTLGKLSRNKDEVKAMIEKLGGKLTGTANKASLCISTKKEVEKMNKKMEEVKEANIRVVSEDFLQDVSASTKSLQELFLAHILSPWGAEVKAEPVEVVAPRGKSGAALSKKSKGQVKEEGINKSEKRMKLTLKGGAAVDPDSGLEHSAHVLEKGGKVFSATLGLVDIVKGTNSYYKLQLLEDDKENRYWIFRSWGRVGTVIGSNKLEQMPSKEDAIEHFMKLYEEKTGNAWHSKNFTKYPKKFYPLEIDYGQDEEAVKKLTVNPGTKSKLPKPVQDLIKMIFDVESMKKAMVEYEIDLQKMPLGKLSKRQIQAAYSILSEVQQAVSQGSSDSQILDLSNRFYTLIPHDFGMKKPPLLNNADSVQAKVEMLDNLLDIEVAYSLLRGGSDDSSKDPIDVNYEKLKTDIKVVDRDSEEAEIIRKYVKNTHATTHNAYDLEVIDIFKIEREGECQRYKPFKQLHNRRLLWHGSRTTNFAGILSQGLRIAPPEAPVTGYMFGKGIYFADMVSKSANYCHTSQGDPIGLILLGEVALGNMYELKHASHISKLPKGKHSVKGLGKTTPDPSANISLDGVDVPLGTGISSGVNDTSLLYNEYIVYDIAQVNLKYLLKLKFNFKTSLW
UniProt Q9ULW0: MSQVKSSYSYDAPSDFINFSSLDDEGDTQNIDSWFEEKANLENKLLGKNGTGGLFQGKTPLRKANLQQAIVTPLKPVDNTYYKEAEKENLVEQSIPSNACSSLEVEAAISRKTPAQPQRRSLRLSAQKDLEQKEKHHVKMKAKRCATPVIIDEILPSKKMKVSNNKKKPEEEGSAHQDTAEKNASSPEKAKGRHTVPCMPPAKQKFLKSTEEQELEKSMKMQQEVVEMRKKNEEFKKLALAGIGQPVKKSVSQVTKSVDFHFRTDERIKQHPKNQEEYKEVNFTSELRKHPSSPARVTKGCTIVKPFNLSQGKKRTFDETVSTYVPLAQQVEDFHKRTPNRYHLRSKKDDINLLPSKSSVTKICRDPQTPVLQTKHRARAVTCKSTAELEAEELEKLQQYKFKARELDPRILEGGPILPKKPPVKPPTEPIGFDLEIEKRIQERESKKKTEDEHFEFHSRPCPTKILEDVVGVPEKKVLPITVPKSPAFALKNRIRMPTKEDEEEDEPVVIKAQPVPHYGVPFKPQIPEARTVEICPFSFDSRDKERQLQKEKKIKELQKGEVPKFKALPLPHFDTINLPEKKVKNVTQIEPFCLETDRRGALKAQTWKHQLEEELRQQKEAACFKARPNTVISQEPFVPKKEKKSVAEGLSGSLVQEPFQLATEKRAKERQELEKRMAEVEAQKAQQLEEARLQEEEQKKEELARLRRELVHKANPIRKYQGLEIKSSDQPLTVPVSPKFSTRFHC

Tests used:
[1] = molecular target: full-length PARP1 tagged on the N-terminus with APEX2 (expressed in U2OS cells) (human) (UniProt P09874); test: proximity labelling; APEX2-PARP1 in SILAC-labelled U2OS cells; 500 uM biotin phenol 2 h, 1 mM H2O2 2 min, against no H2O2; nuclear extract, NeutrAvidin pull-down, LC-MS/MS; FDR < 1%
[2] = molecular target: GFP-tagged TPX2, full length (expressed in U2OS cells) (UniProt Q9ULW0); test: affinity purification with mass spectrometry; GFP-TPX2 transiently expressed in U2OS; GFP-Trap beads, modified RIPA washes, on-bead digestion, label-free quantification against a GFP control
[3] = molecular target: full-length PARP1 tagged on the N-terminus with APEX2 (expressed in HEK293T cells) (human) (UniProt P09874); test: proximity labelling; APEX2-PARP1 in HEK293T cells after olaparib or DMSO treatment; SILAC, NeutrAvidin pull-down, LC-MS/MS
[4] = molecular target: GFP-tagged TPX2, full length (expressed in U2OS cells) (UniProt Q9ULW0); test: affinity purification with mass spectrometry; SILAC-based co-IP-MS of the N-terminal deletion mutant or full-length TPX2 in U2OS cells (Supplementary Figure S4d)

Measured: binding

B1: LIG3 (protein, UniProt P49916 43-1009)
chain: LLHGHPLFLRRKPVLSFQGSHLRSRATYLVFLPGLHVGLCSGPCEMAEQRFCVDYAKRGTAGCKKCKEKIVKGVCRIGKVVPNPFSESGGDMKEWYHIKCMFEKLERARATTKKIEDLTELEGWEELEDNEKEQITQHIADLSSKAAGTPKKKAVVQAKLTTTGQVTSPVKGASFVTSTNPRKFSGFSAKPNNSGEAPSSPTPKRSLSSSKCDPRHKDCLLREFRKLCAMVADNPSYNTKTQIIQDFLRKGSAGDGFHGDVYLTVKLLLPGVIKTVYNLNDKQIVKLFSRIFNCNPDDMARDLEQGDVSETIRVFFEQSKSFPPAAKSLLTIQEVDEFLLRLSKLTKEDEQQQALQDIASRCTANDLKCIIRLIKHDLKMNSGAKHVLDALDPNAYEAFKASRNLQDVVERVLHNAQEVEKEPGQRRALSVQASLMTPVQPMLAEACKSVEYAMKKCPNGMFSEIKYDGERVQVHKNGDHFSYFSRSLKPVLPHKVAHFKDYIPQAFPGGHSMILDSEVLLIDNKTGKPLPFGTLGVHKKAAFQDANVCLFVFDCIYFNDVSLMDRPLCERRKFLHDNMVEIPNRIMFSEMKRVTKALDLADMITRVIQEGLEGLVLKDVKGTYEPGKRHWLKVKKDYLNEGAMADTADLVVLGAFYGQGSKGGMMSIFLMGCYDPGSQKWCTVTKCAGGHDDATLARLQNELDMVKISKDPSKIPSWLKVNKIYYPDFIVPDPKKAAVWEITGAEFSKSEAHTADGISIRFPRCTRIRDDKDWKSATNLPQLKELYQLSKEKADFTVVAGDEGSSTTGGSSEENKGPSGSAVSRKAPSKPSASTKKAEGKLSNSNSKDGNMQTAKPSAMKVGEKLATKSSPVKVGEKRKAADETLCQTKVLLDIFTGVRLYLPPSTPDFSRLRRYFVAFDGDLVQEFDMTSATHVLGSRDKNPAAQQVSPEWIWACIRKRRLVAPC
binds: [1] | [2] | [3] | [4]

No constants are given. Whether binding was seen depends on the method and setting. In cells and extracts the contact can be indirect. These calls come from enrichment with a bait or labelling near it, and not all partners need be listed.
